Patent US6806269B1, “2-Amino-benzoxazinones for the treatment of herpes simplex virus” (G. D. Searle & Cop, priority 1999, dated 2004)
Structures were worked out from names or drawings and are uncertain.

Protein sequences, listed by entry. Tags and fused reporters are not part of them. Residues count along the entry.
UniProt P08246, 30-267 limits assumed: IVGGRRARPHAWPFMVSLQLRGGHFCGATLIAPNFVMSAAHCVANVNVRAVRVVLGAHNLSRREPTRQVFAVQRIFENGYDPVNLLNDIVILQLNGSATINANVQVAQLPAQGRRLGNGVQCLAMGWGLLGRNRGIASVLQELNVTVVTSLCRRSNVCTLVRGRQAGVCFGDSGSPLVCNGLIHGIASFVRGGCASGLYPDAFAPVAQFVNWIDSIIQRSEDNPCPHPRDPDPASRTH

What was measured:
[1] = target: Human leukocyte elastase (HLE) (Homo sapiens, UniProt P08246); assay: Human leukocyte elastase assay; conditions: 50 μM compound; 30 minutes pre-incubation
Experimental: Human Leukocyte Elastase Assay
Human leukocyte elastase (HLE) (CALBIOCHEM) was dissolved in saline at 1 mg/ml and further diluted 1/10 in assay buffer (0.2 M Tris, pH 8.0) before use.
0.75 μl of test compound in DMF (or DMF alone), 50 μl of assay buffer and 50 μl of enzyme were added to 96 well plate, mixed and pre-incubated for 30 minutes at ambient temperature. Reaction was initiated by addition of 50 μl of 2.5 mM methoxysuccinyl-Ala-Ala-Pro-Val-p-nitroanilide (Sigma; 25 mM in DMSO diluted 1/10 in assay buffer before use). The increase in absorbance at 405 nm was monitored for 3 min. with BIO-RAD model 3550 microplate reader.

[2] = target: Bovine pancreas α-chymotripsin (Bos taurus, UniProt P00766); assay: Chymotripsin assay; type: biochemical; conditions: 50 μM compound; 30 minutes pre-incubation
Experimental: The chymotripsin assay was modified from the method of Delmar, et al. (Anal. Biochem. 99, 316-320 (1979)). Bovine pancreas α-chymotripsin(type II, Sigma) was dissolved in 0.001 N HCl at 1 mg/ml and further diluted 1/1000 in assay buffer (0.1 M Tris, pH 7.8 containing 0.1 M CaCl2) before use. 0.75 μl of test compound in DMF (or DMF alone), 50 μl of assay buffer and 50 μl of enzyme were added to 96 wells plates, mixed and pre-incubated for 30 minutes at ambient temperature. Reaction was initiated by addition of 50 μl of 0.2 mM N-succinyl-Ala-Ala-Pro-Phe-p-nitroanilide (Sigma; 2 mM in DMSO diluted 1/10 in assay buffer before use). The increase in absorbance at 405 nm was monitored for 3 minutes with BIO-RAD model 3550 microplate-reader.

Cc1c(NC(=O)COCc2ccccc2)ccc2nc(N(C(C)C)C(C)C)oc(=O)c12
INHIBITION AT 50 μM HLE (%) [1]: 18.2%
INHIBITION AT 50 μM CHYMOTRYPSIN (%) [2]: 28.4%
